Results from PubChem BioAssay AID540327 (National Center for Advancing Translational Sciences (NCATS), 2011).
Where “and” joins values, the source holds several entries; their conditions need not be identical. Identical values can stand only once. Inconclusive means that the source gave no clear call. Such entries were picked first, then a sample of the others. Potencies beside an inconclusive call are fits to weak or partial responses and may not hold up. Calls of active or inactive are those of the source. Calls come from the whole dose curve; as a rule, active = well fitted inhibition curve with a large enough effect; inconclusive = small, poorly fitted or top-dose-only effect; inactive = flat fitted curve, though single readings scatter.

Protein sequences, listed by entry. Tags and fused reporters are not part of them. Lines headed by an entry give the natural chain unless they say otherwise; changes in a name come on top.
UniProt O94782: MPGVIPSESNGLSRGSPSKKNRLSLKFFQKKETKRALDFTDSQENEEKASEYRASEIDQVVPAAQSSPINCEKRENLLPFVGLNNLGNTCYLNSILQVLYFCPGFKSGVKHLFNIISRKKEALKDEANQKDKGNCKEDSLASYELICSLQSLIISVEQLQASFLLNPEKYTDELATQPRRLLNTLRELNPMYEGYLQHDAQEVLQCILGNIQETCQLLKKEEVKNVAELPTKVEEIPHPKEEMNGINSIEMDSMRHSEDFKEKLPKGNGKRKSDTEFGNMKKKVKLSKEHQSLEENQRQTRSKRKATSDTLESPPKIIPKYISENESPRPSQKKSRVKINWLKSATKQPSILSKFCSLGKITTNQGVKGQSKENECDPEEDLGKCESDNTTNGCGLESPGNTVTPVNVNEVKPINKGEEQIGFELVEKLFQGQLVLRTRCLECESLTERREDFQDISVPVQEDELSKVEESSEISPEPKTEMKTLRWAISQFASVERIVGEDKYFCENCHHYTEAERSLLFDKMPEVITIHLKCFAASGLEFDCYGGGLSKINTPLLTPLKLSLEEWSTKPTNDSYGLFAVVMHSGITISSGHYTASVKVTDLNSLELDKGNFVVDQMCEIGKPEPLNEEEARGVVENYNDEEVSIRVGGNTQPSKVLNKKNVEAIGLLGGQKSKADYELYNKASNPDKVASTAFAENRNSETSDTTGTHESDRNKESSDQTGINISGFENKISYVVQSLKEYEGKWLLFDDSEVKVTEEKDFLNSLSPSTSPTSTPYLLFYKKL

Target: Ubiquitin carboxyl-terminal hydrolase 1 (Homo sapiens) (UniProt O94782)
Experiment: Inhibitors of USP1/UAF1: Hit Validation in Primary Assay
Settings: Ub-Rhodamine cleavage, fluorescence kinetic read; series mostly up to 114 µM; activity change, negative = inhibition: at the top concentration
Description: Deubiquitinating enzymes (DUBs) are a class of enzymes that can cleave isopeptide bond formed between the C-terminal carboxylate of ubiquitin and a lysine side-chain amino group on the target protein. Among them, ubiquitin specific proteases (USPs) constitute the largest DUB family. Human USPs are emerging as promising targets for pharmacological intervention because of their connection to a number of human diseases, including prostate, colon and breast cancer (1, 2), pediatric acute lymphoblastic leukemia (3), and familial cylindromatosis (4). The advantage of inhibiting USPs lies in the potential specificity of therapeutic intervention that can lead to better efficacy and reduce nonspecific side effects. In a collaboration between the University of Delaware and the NIH Chemical Genomics Center, a high-throughput screen assay was developed to screen for USP1/UAF1 inhibitors. This miniaturized assay has a fluorescent read-out and is used to screen the NIH Molecular Libraries Small Molecule Repository (MLSMR) in order to identify a small molecule that inhibits USP1. This assay was used to confirm the hits identified from the qHTS. NIH Chemical Genomics Center [NCGC] NIH Molecular Libraries Probe Centers Network [MLPCN] MLPCN Grant: DA030552-01 Assay Submitter (PI): Zhihao Zhuang, University of Delaware 1. Priolo, C., et al. (2006) The isopeptidase USP2a protects human prostate cancer from apoptosis. Cancer Res 66, 8625-8632 2. Popov, N., et al. (2007) The ubiquitin-specific protease USP28 is required for MYC stability. Nat Cell Biol 9, 765-774 3. De Pitta, C., et al. (2005) A leukemia-enriched cDNA microarray platform identifies new transcripts with relevance to the biology of pediatric acute lymphoblastic leukemia. Haematologica 90, 890-898 4. Kovalenko, A., et al. (2003) The tumour suppressor CYLD negatively regulates NF-kappaB signalling by deubiquitination. Nature 424, 801-805
3 microliters of reagents (buffer in columns 3 and 4 as negative control and 1nM USP1/UAF1 complex in columns 1, 2, and 5-48) are dispensed into Greiner black solid bottom 1536-well assay plates. Compounds are then transferred via Kalypsys pin tool equipped with 1536-pin array (10nl slotted pins, V&P Scientific, San Diego, CA). Following an incubation step of 15 min at room temperature, 1ul of Ub-Rho substrate (150nM final concentration) is added to initiate the reaction. The plates are immediately centrifuged at 1000 rpm for 15 seconds, and subsequently transferred to a ViewLux high-throughput CCD imager (PerkinElmer) wherein kinetic measurements of fluorescence are acquired using 480 nm excitation/540 nm emission filter set (6 reads every 60 seconds, see Table 1). All reagents are diluted in an assay buffer consisting of 50mM HEPES (pH 7.8), 0.5mM EDTA, 0.1 mg/ml BSA, 1mM TCEP, and 0.01% Tween-20.

| Compound | Potency | activity change, negative = inhibition |
| --- | --- | --- |
| CN(C)[C@H]1C(=O)C(C(=O)NCN2CCCC2)=C(O)[C@]2(O)C(=O)C3=C(O)c4c(O)cccc4[C@@](C)(O)[C@H]3C[C@@H]12 | inconclusive: 28.3 µM [inhibitor, partial curve] |  |
| Cc1nc2sccn2c(=O)c1CCN1CCC(=C(c2ccc(F)cc2)c2ccc(F)cc2)CC1 | inconclusive: 26.4 µM [inhibitor, partial curve] |  |
| C=CC(C)(C)c1[nH]c2ccccc2c1C1=C(O)C(=O)C(c2c[nH]c3c(CC=C(C)C)cccc23)=C(O)C1=O | inconclusive: 83.5 µM [inhibitor, single point] |  |
| Nc1ccc(-c2nc3ccc(-c4nc5ccc(N)cc5[nH]4)cc3[nH]2)cc1 | inconclusive: 46.9 µM [inhibitor, partial curve] |  |
| N#C/C(=C\c1ccc(-c2cc(Cl)ccc2Cl)o1)C(=O)Nc1cccc2ncccc12 | inconclusive: 9.37 µM [inhibitor, full curve] |  |
| COc1cc2c(cc1OC)-c1cc3nc4ccccc4nc3n1C(C)(C)C2 | active: 46.9 µM |  |
| CN1CCN(CCCN2c3ccccc3Sc3ccc(C(F)(F)F)cc32)CC1 | inconclusive: 52.7 µM [inhibitor, partial curve] |  |
| CCCC(=O)NCCc1c2n(c3ccc(OC)cc13)CCCc1ccccc1-2 | inconclusive: 5.91 µM [inhibitor, partial curve] |  |
| OCCN1CCN(CC/C=C2/c3ccccc3Sc3ccc(C(F)(F)F)cc32)CC1 | inconclusive: 33.2 µM [inhibitor, partial curve] |  |
| Cc1cc2c(cc1Cl)N(C(=O)Nc1ccc(Oc3cccnc3C)nc1)CC2 | inconclusive: 18.7 µM [inhibitor, full curve] |  |
| Ic1ccc(N2CCN(Cc3c[nH]c4ncccc34)CC2)cc1 | inconclusive: 26.4 µM [inhibitor, full curve] |  |
| CCCCOC(=O)NS(=O)(=O)c1sc(CC(C)C)cc1-c1ccc(Cn2c(CC)nc3c(C)cc(C)nc32)cc1 | inconclusive: 26.4 µM [inhibitor, partial curve] |  |
| C/C(=C\c1ccc(C(=O)O)cc1)c1ccc2c(c1)C(C)(C)CCC2(C)C | inconclusive: 16.7 µM [inhibitor, full curve] |  |
| CC(C)c1ccc2c(c1)c(SC(C)(C)C)c(CC(C)(C)C(=O)O)n2Cc1ccc(Cl)cc1 | active: 66.3 µM and active: 41.8 µM |  |
| Cc1nc(N=Nc2ccc(C(=O)O)cc2)c(COP(=O)(O)O)c(C=O)c1O | active: 5.91 µM |  |
| O=C(N[C@@H](Cc1ccccc1)C(=O)CCl)OCc1ccccc1 | active: 26.4 µM |  |
| CCCc1c(OCCCOc2ccc(OCC(=O)O)cc2)ccc(C(C)=O)c1O | inconclusive: 93.7 µM [inhibitor, partial curve] |  |
| C[C@@H]1c2ccccc2CN1CC1=NCCN1 |  | inactive: -11.4% |
